Source: PubChem BioAssay AID504834 (National Center for Advancing Translational Sciences (NCATS), 2011)
Among all 320,000 compounds or so, about 22,000 (6.9%) were called active. Inconclusive means that the source gave no clear call. Such entries were picked first, then a sample of the others. Calls follow the shape of the dose curve; as a rule, active = well fitted inhibition curve with a large enough effect; inconclusive = small, poorly fitted or top-dose-only effect, or another doubt; inactive = no such curve, though single readings can be large or run the other way. Potencies of inconclusive entries are doubtful fits and often do not repeat.
Potency is read from the fitted curve at half-maximal effect.

Assay: Primary qHTS for delayed death inhibitors of the malarial parasite plastid, 96 hour incubation
Conditions: P. falciparum luciferase reporter growth; series mostly up to 28.7 µM
Method in brief: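 Erythrocytes infected with luciferase-expressing P. falciparum were dispensed at 2% hematocrit and 0.05% parasitemia (final), then incubated with compounds 96 hours at 37 C in 5% CO2. Luminescence after detection reagent addition reported growth.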
In the case of `Cc1cc2oc(=O)cc(C)c2cc1NC(=O)CCl`, the Potency is reported as active: 4.65 µM.
For `CC12CCC(=O)C=C1CCC1C2C(=O)CC2(C)C1CCC2(O)C(=O)CO` (stereo not given), the Potency was inconclusive: 10.4 µM [inhibitor, partial curve, poor fit].
For `Cc1nc(CNC(=O)c2ccccc2OC2CCN(S(C)(=O)=O)CC2)cs1`, the Potency was inconclusive: 18.5 µM [inhibitor, single point].
For `O=C(NC1CCCC1)c1ccc2c(c1)N(Cc1ccc(F)cc1)CCS2`, the Potency was inconclusive: 18.5 µM [inhibitor, single point].
In the case of `COc1ccc(C(=O)NC(=S)NC2CCCCC2)cc1`, the Potency is reported as “inactive”.
For `Cc1noc(C)c1S(=O)(=O)NCc1ccc2c(c1)OCO2`, the Potency was “inactive”.
With `CN(Cc1ccccc1)C(=O)Cn1c(=O)c2cccn2c2cccnc21` the Potency was inconclusive: 18.5 µM [inhibitor, single point].
With `COCCn1nnnc1C(c1ccc(OC)c(OC)c1)N1CCN(c2nc3ccccc3s2)CC1` (stereo not given) the Potency was active: 2.94 µM.
In the case of `CN(C)S(=O)(=O)Oc1ccc(Cl)cc1C(=O)Nc1ccc(F)cc1F`, the Potency is reported as inconclusive: 18.5 µM [inhibitor, single point].
For `CCOc1ccccc1CN1CCCC(CNC(=O)Cc2ccc(OC)cc2)C1` (stereo not given), the Potency was inconclusive: 11.7 µM [inhibitor, single point].
In the case of `CCOC(=O)C1=C(C)N=c2s/c(=C\c3cccc(OCC(=O)O)c3)c(=O)n2C1c1ccccc1OC` (stereo not given), the Potency is reported as inconclusive: 11.7 µM [inhibitor, single point].
In the case of `Cc1ccccc1C1C(C#N)=C2NC(=O)c3c(sc4c3CCCCC4)N2C2=C1C(=O)CC(C)(C)C2` (stereo not given), the Potency is reported as “inactive”.
With `Cc1cccc(CC2CC(=O)N(c3ncccn3)C2=O)c1` (stereo not given) the Potency was “inactive”.
With `O=S(=O)(/N=C(/Nc1ccc(Cl)cc1Cl)c1ccccc1)c1cccs1` the Potency was inconclusive: 10.4 µM [inhibitor, partial curve, poor fit].
With `CC(C)(C)NC(=O)CN(CCN1CCOCC1)C(=O)CNS(=O)(=O)c1ccc(Cl)cc1` the Potency was “inactive”.
For `CN(C)CCCNC(=S)N1CCC(c2nc3ccccc3[nH]2)CC1`, the Potency was “inactive”.
For `CC1=CS(=O)(=O)CC1SC(=S)N(C)C1CCS(=O)(=O)C1` (stereo not given), the Potency was “inactive”.
In the case of `NS(=O)(=O)c1ccc(NC(=O)c2ccc(S(=O)(=O)N3CCOCC3)o2)cc1`, the Potency is reported as “inactive”.
For `O=C(CN1CCN(Cc2ccccc2)CC1)N/N=C/c1cccnc1`, the Potency was “inactive”.
With `CCC(=NCc1ccco1)c1c(O)n(-c2ccc(C)cc2)c(=O)[nH]c1=O` the Potency was inconclusive: 4.15 µM [inhibitor, partial curve, poor fit].
With `CN(C)c1nc(N)c([N+](=O)[O-])c(N2CCCCCC2)n1` the Potency was “inactive”.
For `O=[N+]([O-])c1ccccc1/C=C/C=N/Nc1nc(N2CCCCC2)nc(N2CCCCC2)n1`, the Potency was inconclusive: 11.7 µM [inhibitor, single point].
In the case of `COc1ccc(-n2c(Cc3cccn3C)nnc2SCC(=O)Nc2ccccc2OC)cc1`, the Potency is reported as inconclusive: 18.5 µM [inhibitor, single point].
In the case of `O=c1c2cc(NC(=S)NCc3ccccn3)ccc2nc2n1CCCCC2`, the Potency is reported as “inactive”.
For `CCCCOc1ccc(N(CC(=O)NCc2ccco2)C(=O)CCC(=O)Nc2nccs2)cc1`, the Potency was inconclusive: 14.7 µM [inhibitor, partial curve].
With `Cc1cc(C)nc(SCCS(=O)(=O)Cc2ccc(Cl)cc2)n1` the Potency was active: 10.4 µM.
For `O=C(CSc1nc2ccccc2c(=O)n1CCCN1CCOCC1)Nc1cccc(S(=O)(=O)N2CCCCCC2)c1`, the Potency was active: 0.522 µM.
For `COC(=O)C1=C(c2ccc(F)cc2OCc2ccccc2)C[C@@H]2CC[C@H]1N2C(=O)N1CCC(C)CC1`, the Potency was inconclusive: 3.29 µM [inhibitor, partial curve].
In the case of `CCN1CCN(c2nc3c(C)cccn3c(=O)c2/C=C(\C#N)C(=O)NC)CC1`, the Potency is reported as “inactive”.
With `O=c1c2c([N+](=O)[O-])cc([N+](=O)[O-])cc2nc2ccccn12` the Potency was inconclusive: 18.5 µM [inhibitor, single point].
With `NC(=O)c1ccc(NC(=O)CN2CCN(S(=O)(=O)c3ccc4ccccc4c3)CC2)cc1` the Potency was inconclusive: 6.57 µM [inhibitor, partial curve].
In the case of `C=C(C)CN(CC)C(=O)CN1C(=O)NC(C)(c2ccc3ccccc3c2)C1=O` (stereo not given), the Potency is reported as “inactive”.
With `CN1CCN(c2ccc(S(=O)(=O)N3CCOCC3)cc2NC(=O)COc2ccc(F)cc2Cl)CC1` the Potency was active: 13.1 µM.
With `CCOc1ccc(N(CC(=O)Nc2ccc(OC)cc2)S(=O)(=O)c2c(C)noc2C)cc1` the Potency was active: 6.57 µM.
In the case of `COc1ccc(Nc2nc(-c3cccs3)nc3ccccc23)cc1`, the Potency is reported as “inactive”.
For `Cc1ccccc1C(=O)N1CCN=C1SCc1ccc([N+](=O)[O-])cc1`, the Potency was “inactive”.
For `CCn1c(SCC(=O)Nc2cc(C)on2)nc2c([nH]c3ccccc32)c1=O`, the Potency was inconclusive: 14.7 µM [inhibitor, partial curve, poor fit].
With `Cc1ccc(NC(=O)NC(=O)CN2CCCC2c2ccc3c(c2)OCCO3)cc1C` (stereo not given) the Potency was inconclusive: 18.5 µM [inhibitor, single point].
In the case of `O=C(NN1C(=O)c2ccccc2C1=O)C1CCCCC1`, the Potency is reported as inconclusive: 0.0029 µM [inhibitor, full curve, poor fit].
For `CCc1nnc(NC(=O)CSCc2cc(=O)n3ccsc3n2)s1`, the Potency was inconclusive: 10.4 µM [inhibitor, partial curve, poor fit].
With `Cc1ccc(-n2c(SCC(=O)Nc3cc(C)on3)nc3c([nH]c4ccccc43)c2=O)cc1` the Potency was inconclusive: 1.47 µM [inhibitor, partial curve, poor fit].
In the case of `Cc1nn(C)c(Oc2ccccc2)c1CCNC(=O)C(C)(C)C`, the Potency is reported as inconclusive: 18.5 µM [inhibitor, partial curve, poor fit].
With `c1ccc(Cn2nnnc2C(c2ccccn2)N2CCN(c3ccccc3)CC2)cc1` (stereo not given) the Potency was inconclusive: 14.7 µM [inhibitor, partial curve, poor fit].
For `Cc1onc(-c2ccccc2Cl)c1C(=O)OCC(=O)N1CCN(c2ccccc2)CC1`, the Potency was inconclusive: 18.5 µM [inhibitor, single point].
For `C[C@H]1CC[C@]2(O[C@H](CCO)C[C@@H](O)[C@@H]2O)O1`, the Potency was “inactive”.
In the case of `CC(=O)Nc1nc(-c2ccc3c(c2)CCN3S(C)(=O)=O)cs1`, the Potency is reported as “inactive”.
With `CC(=O)N/C(=C\c1ccccc1)C(=O)OC(C)C(=O)Nc1ccccc1F` (stereo not given) the Potency was inconclusive: 9.28 µM [inhibitor, single point].
For `COc1ccc(-n2c(Cn3nnc4ccccc43)nnc2SCC(=O)O)cc1`, the Potency was inconclusive: 0.657 µM [inhibitor, partial curve, poor fit].
With `O=C(CCC(=O)Nc1ccc(F)cc1)N/N=C/c1cccc(Br)c1` the Potency was “inactive”.
With `CCCOC(=O)c1ccc(NC(=O)c2ccccc2[N+](=O)[O-])cc1` the Potency was inconclusive: 18.5 µM [inhibitor, partial curve, poor fit].
In the case of `COCCNC(=O)/C(C#N)=C/c1ccc(-c2ccc(S(=O)(=O)N3CCOCC3)cc2)o1`, the Potency is reported as “inactive”.
For `COc1ccc(/C=C2\SC(=S)N(CC(=O)Nc3nnc(C)s3)C2=O)cc1`, the Potency was “inactive”.
For `O=C(Cc1ccccc1)NNS(=O)(=O)c1ccc(F)cc1`, the Potency was inconclusive: 9.28 µM [inhibitor, partial curve].
In the case of `CCCCOC(=O)C1=C(C)Nc2ncnn2C1c1cc(OC)c(OC)cc1OC` (stereo not given), the Potency is reported as inconclusive: 0.147 µM [inhibitor, full curve, poor fit].
In the case of `N#C/C(=C\c1cccnc1)C(=O)Nc1ccc(S(N)(=O)=O)cc1`, the Potency is reported as inconclusive: 18.5 µM [inhibitor, single point].
With `O=C(NCCc1c[nH]c2ccccc12)C1CCN(Cc2ccc(Br)cc2)CC1` the Potency was inconclusive: 13.1 µM [inhibitor, partial curve].
With `Cc1cc(C)c2nc(N(CCN(C)C)C(=O)/C=C/c3cccs3)sc2c1` the Potency was active: 6.57 µM.
With `COc1ccc(-c2c(C(C)=O)c(C)nc3sc4c(=O)n(-c5ccc(C)cc5)nnc4c23)cc1` the Potency was inconclusive: 8.28 µM [inhibitor, partial curve, poor fit].
With `COc1ccc(N2CCN(S(=O)(=O)c3ccc4c(c3)NC(=O)C(C)S4)CC2)cc1` (stereo not given) the Potency was inconclusive: 18.5 µM [inhibitor, single point].
For `O=C(CNc1ccccc1Cl)Nc1cc(S(=O)(=O)N2CCOCC2)ccc1Cl`, the Potency was inconclusive: 10.4 µM [inhibitor, single point].
With `CC1=C(C(=O)Nc2cccc([N+](=O)[O-])c2)C2(CCC(C)CC2)OC1=O` (stereo not given) the Potency was active: 0.37 µM.
With `O=C(c1cc(-c2ccncc2)nc2ccccc12)N1CCN(c2ccccc2O)CC1` the Potency was active: 4.65 µM.
For `CCc1ccccc1N(C(=O)CCC(=O)Nc1cc(C)on1)C(C(=O)NC1CCCC1)c1ccco1` (stereo not given), the Potency was “inactive”.
For `O=C(Cc1ccccc1)Nc1ccc(Cl)cn1`, the Potency was “inactive”.
In the case of `COc1cc(NC(=O)CN2C(=O)C(=O)N(C3CCCC3)C2=O)cc(OC)c1`, the Potency is reported as “inactive”.
In the case of `COc1cc(/C=C2/SC(=S)N(CC3CCCO3)C2=O)ccc1O` (stereo not given), the Potency is reported as inconclusive: 18.5 µM [inhibitor, single point].
With `CN1CCN(C(=S)Nc2ccc(S(N)(=O)=O)cc2)CC1` the Potency was “inactive”.
In the case of `COc1ccccc1OCc1nc2ccccc2n1C`, the Potency is reported as inconclusive: 6.57 µM [inhibitor, partial curve].
For `C[C@H]1CC[C@H]2C(=O)N3[C@H](c4cccc(N5CCCC5=O)c4)[C@@H](C)CC[C@H]3C(=O)N2[C@@H]1c1cccc(N2CCCC2=O)c1`, the Potency was inconclusive: 18.5 µM [inhibitor, single point].
For `COc1ccc(C(=O)NCCOc2cccc(Oc3ccccc3)c2)cc1OC`, the Potency was inconclusive: 18.5 µM [inhibitor, single point].
